Experimental data: PubChem BioAssay AID493246 (Drosophila RNAi Screening Center, 2011)

Test: 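Identify essential fly genes by loss of cell viability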 (primary screen)
System: Drosophila Kc and S2R+ cells
Reagents: long dsRNA against Drosophila genes
Detection: 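Raw, unnormalised count of remaining cells in each well; per-plate z-scores of cell number underlie the calls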
Direction: Kc cell number and S2R+ cell number: higher = more cells remaining
Active means: 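Counted as a hit if cell number falls by a z-score of at least 3 within its plate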
The screen tested about 21,000 reagents; this is an unselected part of those that have a named target and a result. Of all reagents, 429 (2%) are marked active. 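Values are raw and not normalised between plates; calls rest on per-plate z-scores that were not deposited.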 Reagents against one gene are numbered here. Names joined by + are all predicted targets of the reagent. The record does not give: the amount of reagent, the time to read-out.

target | reagent | Kc cell number, rep 1 | Kc cell number, rep 2 | S2R+ cell number, rep 1 | S2R+ cell number, rep 2 | Call
tll (GeneID 43656) | 1 | 1.44e6 | 1.47e6 | 1.04e6 | 1.09e6 | inactive
GAPsec (GeneID 38987) | 1 | 1.35e6 | 1.50e6 | 1.19e6 | 1.17e6 | inactive
LUBEL (GeneID 33950) | 1 | 1.53e6 | 1.47e6 | 1.08e6 | 1.17e6 | inactive
CG17385 (GeneID 36603) | 1 | 1.83e6 | 1.73e6 | 1.40e6 | 1.57e6 | inactive
Pgm2a (GeneID 35923) | 1 | 1.45e6 | 1.42e6 | 1.26e6 | 1.31e6 | inactive
CG11670 (GeneID 41608) | 1 | 1.50e6 | 1.52e6 | 1.11e6 | 1.25e6 | inactive
firl (GeneID 34627) | 1 | 1.51e6 | 1.55e6 | 1.26e6 | 1.38e6 | inactive
Obp99d (GeneID 43496) | 1 | 1.40e6 | 1.43e6 | 9.33e5 | 1.04e6 | inactive
ari-1 (GeneID 32796) | 1 | 1.59e6 | 1.58e6 | 1.09e6 | 1.18e6 | inactive
vvl (GeneID 38752) | 1 | 1.29e6 | 1.24e6 | 1.21e6 | 1.25e6 | inactive
CG8569 (GeneID 36376) | 1 | 1.38e6 | 1.46e6 | 1.18e6 | 1.26e6 | inactive
CG4849 (GeneID 43358) | 1 | 4.62e5 | – | 6.17e5 | – | inactive
Tim8 (GeneID 32081) | 1 | 1.54e6 | 1.54e6 | 1.05e6 | 1.15e6 | inactive
Iyd (GeneID 39242) | 1 | 1.35e6 | 1.27e6 | 1.29e6 | 1.36e6 | inactive
Iyd (GeneID 39242) | 2 | 1.39e6 | 1.31e6 | 1.30e6 | 1.41e6 | inactive
ChT (GeneID 42245) | 1 | 1.53e6 | 1.61e6 | 1.03e6 | 1.11e6 | inactive
CG17768 + LSm-4 | 1 | 1.55e6 | 1.62e6 | 1.07e6 | 1.21e6 | inactive
sdt (GeneID 44861) | 1 | 1.50e6 | 1.73e6 | 1.06e6 | 1.17e6 | inactive
sdt (GeneID 44861) | 2 | 1.25e6 | 1.54e6 | 1.13e6 | 1.15e6 | inactive
sdt (GeneID 44861) | 3 | 1.47e6 | 1.49e6 | 9.60e5 | 1.11e6 | inactive
sdt (GeneID 44861) | 4 | 1.48e6 | 1.49e6 | 9.38e5 | 1.06e6 | inactive
sdt (GeneID 44861) | 5 | 1.45e6 | 1.47e6 | 1.04e6 | 1.15e6 | inactive
sdt (GeneID 44861) | 6 | 1.14e6 | 1.11e6 | 6.43e5 | 7.20e5 | inactive
sdt (GeneID 44861) | 7 | 1.01e6 | 1.07e6 | 4.39e5 | 5.25e5 | active
sdt (GeneID 44861) | 8 | 1.65e6 | 1.62e6 | 1.05e6 | 1.18e6 | inactive
sdt (GeneID 44861) | 9 | 1.84e6 | 1.80e6 | 1.12e6 | 1.27e6 | inactive
